This is one part of the list. Small differences around the control level are noise.

Protein sequences, listed by entry. Tags and fused reporters are not part of them. Lines headed by an entry give the natural chain unless they say otherwise; changes in a name come on top.
UniProt Q99747: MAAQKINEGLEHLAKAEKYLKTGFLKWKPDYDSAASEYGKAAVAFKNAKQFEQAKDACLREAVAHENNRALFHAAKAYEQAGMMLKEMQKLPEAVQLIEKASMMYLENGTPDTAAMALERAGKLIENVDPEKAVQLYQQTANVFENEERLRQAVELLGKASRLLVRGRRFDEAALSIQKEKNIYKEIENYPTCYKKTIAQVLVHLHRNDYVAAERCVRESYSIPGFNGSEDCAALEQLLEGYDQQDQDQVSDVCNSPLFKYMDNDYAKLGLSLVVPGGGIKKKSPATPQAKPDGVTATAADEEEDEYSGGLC
UniProt Q99741: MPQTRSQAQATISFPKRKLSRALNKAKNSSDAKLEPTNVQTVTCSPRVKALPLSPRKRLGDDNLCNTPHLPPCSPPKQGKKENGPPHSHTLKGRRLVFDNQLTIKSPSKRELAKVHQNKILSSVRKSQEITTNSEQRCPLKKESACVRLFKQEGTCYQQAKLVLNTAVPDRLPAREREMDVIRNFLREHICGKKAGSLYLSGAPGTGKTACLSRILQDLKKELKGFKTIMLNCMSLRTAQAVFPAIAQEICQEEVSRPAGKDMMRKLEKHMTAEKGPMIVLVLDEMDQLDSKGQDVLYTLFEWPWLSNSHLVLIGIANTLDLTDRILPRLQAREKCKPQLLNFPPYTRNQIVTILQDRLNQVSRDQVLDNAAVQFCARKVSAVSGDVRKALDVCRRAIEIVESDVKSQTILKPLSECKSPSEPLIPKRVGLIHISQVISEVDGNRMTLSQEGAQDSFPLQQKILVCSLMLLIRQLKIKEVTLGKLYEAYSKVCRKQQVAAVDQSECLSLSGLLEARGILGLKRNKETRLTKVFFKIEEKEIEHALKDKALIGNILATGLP
UniProt Q9BSW2: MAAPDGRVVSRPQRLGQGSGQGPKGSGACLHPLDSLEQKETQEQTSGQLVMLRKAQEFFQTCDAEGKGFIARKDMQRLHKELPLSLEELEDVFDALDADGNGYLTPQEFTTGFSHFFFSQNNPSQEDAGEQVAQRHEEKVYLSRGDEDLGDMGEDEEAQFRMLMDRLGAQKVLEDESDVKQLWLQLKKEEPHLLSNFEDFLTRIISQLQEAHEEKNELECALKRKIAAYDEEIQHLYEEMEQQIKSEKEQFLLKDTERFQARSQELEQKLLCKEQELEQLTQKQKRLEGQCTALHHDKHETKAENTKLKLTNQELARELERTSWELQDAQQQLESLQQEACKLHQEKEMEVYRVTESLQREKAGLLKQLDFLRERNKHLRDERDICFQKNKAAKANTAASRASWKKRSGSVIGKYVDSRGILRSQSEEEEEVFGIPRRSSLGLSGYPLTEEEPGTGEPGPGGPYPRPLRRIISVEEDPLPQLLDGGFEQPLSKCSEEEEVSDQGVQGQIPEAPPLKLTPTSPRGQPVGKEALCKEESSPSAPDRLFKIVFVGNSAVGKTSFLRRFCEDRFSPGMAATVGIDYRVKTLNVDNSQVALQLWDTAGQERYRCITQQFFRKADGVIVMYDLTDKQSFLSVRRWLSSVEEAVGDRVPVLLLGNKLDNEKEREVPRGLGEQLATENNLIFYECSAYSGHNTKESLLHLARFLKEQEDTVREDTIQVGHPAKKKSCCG
UniProt Q9BQE3, whole entry: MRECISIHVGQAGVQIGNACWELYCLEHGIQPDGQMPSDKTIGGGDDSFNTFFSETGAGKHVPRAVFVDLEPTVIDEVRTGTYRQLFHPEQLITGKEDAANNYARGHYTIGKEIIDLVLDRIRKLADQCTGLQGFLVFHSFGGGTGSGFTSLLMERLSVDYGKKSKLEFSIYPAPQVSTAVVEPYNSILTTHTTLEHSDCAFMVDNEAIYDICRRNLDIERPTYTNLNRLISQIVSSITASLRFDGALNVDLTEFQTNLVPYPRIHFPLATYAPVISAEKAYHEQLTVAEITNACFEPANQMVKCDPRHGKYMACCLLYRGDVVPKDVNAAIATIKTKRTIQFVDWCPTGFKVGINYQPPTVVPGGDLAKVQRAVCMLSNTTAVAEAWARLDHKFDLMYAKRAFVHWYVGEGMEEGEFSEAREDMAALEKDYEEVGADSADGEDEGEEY
UniProt Q9BPX6: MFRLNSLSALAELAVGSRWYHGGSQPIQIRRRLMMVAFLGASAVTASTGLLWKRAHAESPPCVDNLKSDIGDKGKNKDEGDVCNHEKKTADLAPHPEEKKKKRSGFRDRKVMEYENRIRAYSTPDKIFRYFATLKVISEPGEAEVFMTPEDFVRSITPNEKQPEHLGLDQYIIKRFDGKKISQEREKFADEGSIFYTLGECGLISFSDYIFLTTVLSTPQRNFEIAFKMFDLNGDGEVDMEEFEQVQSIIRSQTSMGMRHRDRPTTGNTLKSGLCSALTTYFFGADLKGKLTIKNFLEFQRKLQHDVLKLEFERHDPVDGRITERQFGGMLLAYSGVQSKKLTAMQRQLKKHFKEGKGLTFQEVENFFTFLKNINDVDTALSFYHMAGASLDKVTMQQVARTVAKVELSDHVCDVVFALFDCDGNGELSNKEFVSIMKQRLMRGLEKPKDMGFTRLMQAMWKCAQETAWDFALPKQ
UniProt Q9BU64: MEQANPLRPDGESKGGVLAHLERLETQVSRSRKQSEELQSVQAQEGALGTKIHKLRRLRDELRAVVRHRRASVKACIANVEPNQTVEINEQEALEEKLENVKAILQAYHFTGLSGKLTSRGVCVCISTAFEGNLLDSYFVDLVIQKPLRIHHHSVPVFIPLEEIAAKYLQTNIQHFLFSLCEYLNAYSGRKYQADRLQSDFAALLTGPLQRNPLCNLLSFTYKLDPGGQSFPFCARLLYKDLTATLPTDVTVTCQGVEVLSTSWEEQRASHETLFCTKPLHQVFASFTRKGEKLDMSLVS
UniProt Q9BW66: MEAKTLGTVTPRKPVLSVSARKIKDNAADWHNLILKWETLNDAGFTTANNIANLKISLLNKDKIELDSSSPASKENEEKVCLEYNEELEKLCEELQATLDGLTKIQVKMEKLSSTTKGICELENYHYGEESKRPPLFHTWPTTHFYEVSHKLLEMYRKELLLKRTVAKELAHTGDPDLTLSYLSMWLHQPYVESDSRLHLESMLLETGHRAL
UniProt Q9BV97: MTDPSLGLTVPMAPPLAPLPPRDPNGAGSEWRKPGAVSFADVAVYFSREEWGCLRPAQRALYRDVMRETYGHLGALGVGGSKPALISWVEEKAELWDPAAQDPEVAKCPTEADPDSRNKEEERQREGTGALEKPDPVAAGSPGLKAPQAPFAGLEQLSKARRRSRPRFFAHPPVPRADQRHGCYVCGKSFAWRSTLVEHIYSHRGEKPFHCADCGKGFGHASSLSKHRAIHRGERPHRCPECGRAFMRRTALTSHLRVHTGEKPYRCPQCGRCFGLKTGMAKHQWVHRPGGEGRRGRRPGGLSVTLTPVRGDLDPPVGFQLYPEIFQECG
UniProt Q9BRT2: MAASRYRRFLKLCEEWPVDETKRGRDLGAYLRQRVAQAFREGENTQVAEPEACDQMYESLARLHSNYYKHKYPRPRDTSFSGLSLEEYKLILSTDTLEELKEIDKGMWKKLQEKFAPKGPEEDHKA
UniProt Q9BUX1: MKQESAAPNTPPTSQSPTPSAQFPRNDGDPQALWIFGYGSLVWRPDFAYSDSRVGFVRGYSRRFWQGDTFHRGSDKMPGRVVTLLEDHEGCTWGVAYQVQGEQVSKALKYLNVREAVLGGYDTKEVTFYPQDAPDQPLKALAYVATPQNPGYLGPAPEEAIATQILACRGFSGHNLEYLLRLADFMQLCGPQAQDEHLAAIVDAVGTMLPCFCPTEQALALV
UniProt Q9BQS8: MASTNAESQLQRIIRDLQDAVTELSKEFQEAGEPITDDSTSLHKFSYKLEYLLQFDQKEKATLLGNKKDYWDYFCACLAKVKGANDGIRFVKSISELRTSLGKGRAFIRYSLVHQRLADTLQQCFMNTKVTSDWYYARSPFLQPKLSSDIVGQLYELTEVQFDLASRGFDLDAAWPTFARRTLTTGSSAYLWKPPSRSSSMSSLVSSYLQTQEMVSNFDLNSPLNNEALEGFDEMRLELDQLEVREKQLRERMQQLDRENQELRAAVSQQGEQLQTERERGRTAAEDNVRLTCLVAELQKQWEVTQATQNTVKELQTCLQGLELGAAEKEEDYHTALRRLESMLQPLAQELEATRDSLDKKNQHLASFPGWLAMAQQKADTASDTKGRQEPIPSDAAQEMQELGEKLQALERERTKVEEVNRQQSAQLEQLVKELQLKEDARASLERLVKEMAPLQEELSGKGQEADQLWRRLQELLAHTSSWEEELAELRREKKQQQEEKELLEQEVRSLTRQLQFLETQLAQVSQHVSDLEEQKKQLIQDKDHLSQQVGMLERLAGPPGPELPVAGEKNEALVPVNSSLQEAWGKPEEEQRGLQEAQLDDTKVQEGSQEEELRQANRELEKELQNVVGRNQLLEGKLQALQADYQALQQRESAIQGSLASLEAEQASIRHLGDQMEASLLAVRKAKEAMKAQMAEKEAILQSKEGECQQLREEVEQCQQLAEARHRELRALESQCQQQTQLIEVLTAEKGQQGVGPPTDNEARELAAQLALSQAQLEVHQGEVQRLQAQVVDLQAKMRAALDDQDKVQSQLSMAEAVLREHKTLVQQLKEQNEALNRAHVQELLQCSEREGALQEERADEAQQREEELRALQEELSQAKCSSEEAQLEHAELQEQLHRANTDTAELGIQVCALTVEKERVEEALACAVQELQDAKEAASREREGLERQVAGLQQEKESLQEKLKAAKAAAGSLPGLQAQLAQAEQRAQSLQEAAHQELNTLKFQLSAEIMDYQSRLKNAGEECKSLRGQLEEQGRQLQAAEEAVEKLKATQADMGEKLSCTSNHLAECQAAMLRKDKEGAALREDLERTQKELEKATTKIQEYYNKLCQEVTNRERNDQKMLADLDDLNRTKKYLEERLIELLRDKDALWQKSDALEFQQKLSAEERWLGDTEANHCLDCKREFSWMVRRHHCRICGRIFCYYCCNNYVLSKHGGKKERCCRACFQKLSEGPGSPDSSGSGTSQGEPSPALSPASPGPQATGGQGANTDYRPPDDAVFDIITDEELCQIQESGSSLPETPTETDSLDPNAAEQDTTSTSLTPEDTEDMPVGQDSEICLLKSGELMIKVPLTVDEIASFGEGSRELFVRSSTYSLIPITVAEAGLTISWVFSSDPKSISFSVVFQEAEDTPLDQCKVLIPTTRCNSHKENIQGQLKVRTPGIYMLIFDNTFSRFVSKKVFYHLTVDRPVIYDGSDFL
UniProt Q9BU70: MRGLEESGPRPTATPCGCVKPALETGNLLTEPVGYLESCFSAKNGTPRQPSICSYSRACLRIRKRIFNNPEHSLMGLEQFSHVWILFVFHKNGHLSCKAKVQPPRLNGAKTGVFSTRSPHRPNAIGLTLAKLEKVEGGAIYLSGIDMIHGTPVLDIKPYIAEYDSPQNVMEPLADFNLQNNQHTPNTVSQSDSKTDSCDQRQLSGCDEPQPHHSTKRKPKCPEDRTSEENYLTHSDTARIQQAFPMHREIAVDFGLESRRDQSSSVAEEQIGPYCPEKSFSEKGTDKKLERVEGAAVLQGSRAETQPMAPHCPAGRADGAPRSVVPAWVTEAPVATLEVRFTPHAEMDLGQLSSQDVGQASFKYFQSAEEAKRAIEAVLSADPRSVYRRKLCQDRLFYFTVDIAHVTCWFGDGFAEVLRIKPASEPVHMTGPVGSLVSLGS
UniProt Q9BT92: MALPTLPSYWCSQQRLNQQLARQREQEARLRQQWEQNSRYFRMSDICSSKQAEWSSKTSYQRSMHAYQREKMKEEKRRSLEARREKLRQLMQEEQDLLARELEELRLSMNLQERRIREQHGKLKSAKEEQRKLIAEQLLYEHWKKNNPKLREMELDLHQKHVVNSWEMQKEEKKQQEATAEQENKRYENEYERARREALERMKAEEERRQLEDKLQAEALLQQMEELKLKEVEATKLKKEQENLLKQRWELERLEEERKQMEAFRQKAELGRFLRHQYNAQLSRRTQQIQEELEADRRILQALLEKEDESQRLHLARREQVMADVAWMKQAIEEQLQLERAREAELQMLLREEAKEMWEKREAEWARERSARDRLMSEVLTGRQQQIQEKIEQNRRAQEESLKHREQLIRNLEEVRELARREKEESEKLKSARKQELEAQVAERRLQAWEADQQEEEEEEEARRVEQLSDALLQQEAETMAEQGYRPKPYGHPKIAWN
UniProt Q99584: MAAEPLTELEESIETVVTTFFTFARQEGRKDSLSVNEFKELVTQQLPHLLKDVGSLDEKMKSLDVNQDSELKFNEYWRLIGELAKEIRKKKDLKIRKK
UniProt Q9BU76: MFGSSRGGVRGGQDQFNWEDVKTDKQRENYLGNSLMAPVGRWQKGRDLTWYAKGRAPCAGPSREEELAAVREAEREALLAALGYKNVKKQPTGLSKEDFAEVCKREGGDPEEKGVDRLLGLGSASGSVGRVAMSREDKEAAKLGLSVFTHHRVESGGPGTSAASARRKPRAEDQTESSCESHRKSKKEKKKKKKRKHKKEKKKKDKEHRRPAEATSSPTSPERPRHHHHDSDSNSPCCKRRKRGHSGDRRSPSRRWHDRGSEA

Compound in the experiment: CN[C@@H]1C[C@H]2O[C@@](C)([C@@H]1OC)n1c3ccccc3c3c4c(c5c6ccccc6n2c5c31)C(=O)NC4 [staurosporine]
The experiment in a line: log2 fold change of tryptic peptide abundance, ligand vs vehicle (limited proteolysis) (log2 ratio); higher = more trypsin-susceptible (destabilized). As to conditions: ligand concentration: 20 uM; sample: K562 cleared lysate; digestion: 4 min, 22 C (HT-PELSA RT4min, Orbitrap Astral).
As for “UniProt Q9BRX9 (peptide sequence: DTHVVSCSEDGK, peptide start residue: 247)”, the log2 fold change was determined as 1.1.

As for “RBM42 (peptide sequence: ELGLGLGLGLK, peptide start residue: 236) (UniProt Q9BTD8)”, the log2 fold change was 0.0949.

As to “NAPG (peptide sequence: NDYVAAERCVR, peptide start residue: 208) (UniProt Q99747)”, the log2 fold change is -0.909.

Regarding “CDC6 (peptide sequence: AIEIVESDVK, peptide start residue: 397) (UniProt Q99741)”, the log2 fold change was -0.426.

As for “UniProt Q9BSW2 (peptide sequence: VLEDESDVK, peptide start residue: 172)”, the log2 fold change is -0.292.

With “TUBA1C (peptide sequence: AVCMLSNTTAVAEAWAR, peptide start residue: 374) (UniProt Q9BQE3)”, the log2 fold change was -0.0963.

Regarding “UniProt Q9BPX6 (peptide sequence: KTADLAPHPEEK, peptide start residue: 88)”, the log2 fold change is 0.52.

For the target “ANP32E (peptide sequence: KKINLELR, peptide start residue: 5) (UniProt Q9BTT0)”, the log2 fold change amounted to 0.293.

In the case of “DERL1 (peptide sequence: HNWGQGFR, peptide start residue: 240) (UniProt Q9BUN8)”, the log2 fold change is -0.0496.

As for “CENPO (peptide sequence: AILQAYHFTGLSGK, peptide start residue: 103) (UniProt Q9BU64)”, the log2 fold change is -0.78.

For “CORO1B (peptide sequence: VFTTGFSR, peptide start residue: 234) (UniProt Q9BR76)”, the log2 fold change came out at 0.344.

For “TUBGCP2 (peptide sequence: NRTPYVTTTVSAHSAK, peptide start residue: 35) (UniProt Q9BSJ2)”, the log2 fold change was 0.868.

For the target “RBBP8 (peptide sequence: AFVEPYFKGDER, peptide start residue: 775) (UniProt Q99708)”, the log2 fold change was -0.245.

In the case of “PELO (peptide sequence: MGAYHTIELEPNRQFTLAK, peptide start residue: 96) (UniProt Q9BRX2)”, the log2 fold change is -0.465.

Consider “PRPF18 (peptide sequence: CVEYNAL, peptide start residue: 336) (UniProt Q99633)”, for which the log2 fold change was -0.264.

As for “MPHOSPH9 (peptide sequence: ATDNHVNHSSCPEPVPNGVK, peptide start residue: 900) (UniProt Q99550)”, the log2 fold change was -0.569.

Regarding “CINP (peptide sequence: GICELENYHYGEESK, peptide start residue: 118) (UniProt Q9BW66)”, the log2 fold change was -0.196.

Regarding “B7Z5R0 (peptide sequence: EGTGALEKPDPVAAGSPGLK, peptide start residue: 126) (UniProt Q9BV97)”, the log2 fold change was -0.477.

For the target “UniProt Q9BRT2 (peptide sequence: LILSTDTLEELKEIDKGMWK, peptide start residue: 90)”, the log2 fold change turned out to be 0.176.

In the case of “UniProt Q99551 (peptide sequence: KIVTSDLEIVNILER, peptide start residue: 148)”, the log2 fold change is 0.506.

Regarding “NAP1L4 (peptide sequence: YAALYQPLFDK, peptide start residue: 95) (UniProt Q99733)”, the log2 fold change amounted to 0.316.

Regarding “HDHD3 (peptide sequence: AHGLEVEPSALEQGFR, peptide start residue: 35) (UniProt Q9BSH5)”, the log2 fold change was determined as 0.671.

On to “PKP2 (peptide sequence: IQEQVQQTLAR, peptide start residue: 56) (UniProt Q99959)”, for which the log2 fold change amounted to 0.611.

As for “CHAC1 (peptide sequence: GFSGHNLEYLLR, peptide start residue: 170) (UniProt Q9BUX1)”, the log2 fold change is 0.102.

With “FYCO1 (peptide sequence: HLGDQMEASLLAVRK, peptide start residue: 672) (UniProt Q9BQS8)”, the log2 fold change worked out at 0.353.

For “TRMO (peptide sequence: AETQPMAPHCPAGR, peptide start residue: 303) (UniProt Q9BU70)”, the log2 fold change was 0.25.

As to “GFI1 (peptide sequence: AFSQSSNLITHSR, peptide start residue: 284) (UniProt Q99684)”, the log2 fold change was 0.0653.

For “MED18 (peptide sequence: AGAPWHLR, peptide start residue: 79) (UniProt Q9BUE0)”, the log2 fold change turned out to be 0.179.

Turning to “TCHP (peptide sequence: HVVNSWEMQKEEK, peptide start residue: 161) (UniProt Q9BT92)”, the log2 fold change is -0.451.

As for “UniProt Q9BWC9 (peptide sequence: VKDADGVLCR, peptide start residue: 176)”, the log2 fold change was 0.396.

Regarding “LPIN3 (peptide sequence: GLNPATLSGGIDVLVVK, peptide start residue: 21) (UniProt Q9BQK8)”, the log2 fold change amounted to 0.607.

Turning to “NUDT22 (peptide sequence: LHSATLAPIGSR, peptide start residue: 63) (UniProt Q9BRQ3)”, the log2 fold change came out at 0.197.

On to “S100A13 (peptide sequence: ELVTQQLPHLLKDVGSLDEK, peptide start residue: 40) (UniProt Q99584)”, for which the log2 fold change worked out at 0.675.

For the target “HIRIP3 (peptide sequence: LVEEELLK, peptide start residue: 53) (UniProt Q9BW71)”, the log2 fold change was -0.147.

In the case of “CPNE1 (peptide sequence: DFLGKSDPFLEFFR, peptide start residue: 153) (UniProt Q99829)”, the log2 fold change was -0.227.

For “UniProt Q9BU76 (peptide sequence: HHHHDSDSNSPCCKR, peptide start residue: 226)”, the log2 fold change is -0.829.

As to “UniProt Q9BSD7 (peptide sequence: IGFDVVTLSGTR, peptide start residue: 48)”, the log2 fold change was -0.297.
